These results are taken from the supplement of paper PMC7877785.

The series in a line: self-splicing fitness, log relative to wild type (ln ratio); higher = more splicing; Tetrahymena group I intron in knt gene, E. coli kanamycin selection, DiMSum; sequences stand for … in CUCUCU…GGAGGGAAAAGUUAUCAGGCAUGCACCUGGUAGCUAGUCUUUAAACCAAUAGAUUGCAUCGGUUUAAAAGGCAAGACCGUCAAAUUGCGGGAAAGGGGUCAACAGCCGUUCAGUACCAAGUCUCAGGGGAAACUUUGAGAUGGCCUUGCAAAGGGUAUGGUAAUAAGCUGACGGACAUGGUCCUAACCACGCAGCCAAGUCCUAAGUCAACAGAUCUUCUGUUGAUAUGGAUGCAGUUCACAGACUAAAUGUCGGUCGGGGAAGAUGUAUUCUUCUCAUAAGAUAUAGUCGGACCUCUCCUUAAUGGGAGCUAGCGGAUGAAGUGAUGCAACACUGGAGCCGCUGGGAACUAAUUUGUAUGCGAAAGUAUAUUGAUUAGUUUUGGAGUACUCGUGGUCG
A digest of the protocol: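 Fitness was computed with DiMSum as the error-weighted combination of replicate fold changes, kanamycin versus none, each normalised to wild type. The library randomised all eight intron nucleotides of the P1ex region, with the intron placed in the knt kanamycin-resistance gene on pET-22b(+) in E. coli BL21(DE3). Six replicate transformations were grown overnight at 37°C or 30°C on LB agar with or without 25 μg/mL kanamycin, plus 100 μg/mL carbenicillin, 50 μM IPTG and 0.2% rhamnose. Pooled colonies were amplicon-sequenced on an Illumina HiSeq 2500.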

± gives the uncertainty stated by the source. Many of these values have a large error.

For the sequence GUCUAGCAAUAUUACGCCGC, the “self-splicing fitness (ln)” value (37 °C) is -2.68 ± 0.55.

For GGUAAGCAAUAUUACGAAAG, where the note is “37 °C”, the “self-splicing fitness (ln)” value was -3 ± 1.1.

For the sequence GGACAGCAAUAUUACGUAUG, the “self-splicing fitness (ln)” value reads like this: (30 °C) -1.13 ± 0.073; (37 °C) -0.419 ± 0.08.

In the case of AAGCAGCAAUAUUACGUUAA, the “self-splicing fitness (ln)” value reads like this: (30 °C) -1.76 ± 0.12; (37 °C) -2.14 ± 0.14.

Take AGAGAGCAAUAUUACGGAUG: the “self-splicing fitness (ln)” value (30 °C) is -4.49 ± 1.

For the sequence UCCUAGCAAUAUUACGCCUC, the “self-splicing fitness (ln)” value by setting is: (30 °C) -2.62 ± 0.27; (37 °C) -2.29 ± 0.39.

As for GCGGAGCAAUAUUACGAAAG, the “self-splicing fitness (ln)” value (30 °C) is -2.58 ± 0.57.

Take AGUGAGCAAUAUUACGGACA: the “self-splicing fitness (ln)” value (30 °C) is -1.09 ± 0.2 and the “self-splicing fitness (ln)” value (37 °C) was -1.5 ± 0.27.

AGAGAGCAAUAUUACGGCAA: the “self-splicing fitness (ln)” value is, setting by setting: (30 °C) -4.04 ± 1.1; (37 °C) -1.48 ± 0.4.

On to UAAGAGCAAUAUUACGAAGA, for which the “self-splicing fitness (ln)” value (30 °C) was -3.09 ± 0.54.

In the case of CCUUAGCAAUAUUACGGAAA, under “37 °C”, the “self-splicing fitness (ln)” value is -3.53 ± 0.6.

Consider UGUAAGCAAUAUUACGCAUG, for which the “self-splicing fitness (ln)” value reads like this: (30 °C) -1.95 ± 0.099; (37 °C) 0.308 ± 0.14.

For the sequence GUGGAGCAAUAUUACGUCUA, the “self-splicing fitness (ln)” value (37 °C) was -2.65 ± 0.61.

As to CAGGAGCAAUAUUACGCCAA, the “self-splicing fitness (ln)” value (37 °C) is -2.26 ± 0.5.

Consider UCGCAGCAAUAUUACGCGUC, for which the “self-splicing fitness (ln)” value is, setting by setting: (30 °C) -3.42 ± 0.16; (37 °C) -1.8 ± 0.14.

CGCGAGCAAUAUUACGUUCG: the “self-splicing fitness (ln)” value was -3.21 ± 0.79 (30 °C) and -1.06 ± 0.8 (37 °C).

Take GGACAGCAAUAUUACGAUCC: the “self-splicing fitness (ln)” value is, setting by setting: (30 °C) -4.14 ± 0.6; (37 °C) -1.21 ± 0.56.

With GAGGAGCAAUAUUACGUGAU, where the note is “30 °C”, the “self-splicing fitness (ln)” value was -4.28 ± 0.73.

Turning to AGCAAGCAAUAUUACGGAUC, the “self-splicing fitness (ln)” value runs as follows: (30 °C) -2.73 ± 0.17; (37 °C) -1.08 ± 0.16.

Regarding AAAAAGCAAUAUUACGCAUA, the “self-splicing fitness (ln)” value (30 °C) is -1.5 ± 0.11 and the “self-splicing fitness (ln)” value (37 °C) was -0.715 ± 0.1.

On to AAUGAGCAAUAUUACGAUCC, for which the “self-splicing fitness (ln)” value reads like this: (30 °C) -3.85 ± 0.6; (37 °C) -3.15 ± 1.

Consider UAGGAGCAAUAUUACGAUAC, for which the “self-splicing fitness (ln)” value is -4.56 ± 0.32 (30 °C) and -1.86 ± 0.28 (37 °C).

UCUUAGCAAUAUUACGGGAA: the “self-splicing fitness (ln)” value (30 °C) was -2.8 ± 0.57.

On to CUUUAGCAAUAUUACGACAA, for which the “self-splicing fitness (ln)” value reads like this: (30 °C) -2.47 ± 0.67; (37 °C) -2.54 ± 1.1.

Regarding GCGUAGCAAUAUUACGCCCG, the “self-splicing fitness (ln)” value (30 °C) is -2.23 ± 0.58.

For AAAGAGCAAUAUUACGCGCC, the “self-splicing fitness (ln)” value by setting is: (30 °C) -3.82 ± 0.74; (37 °C) -2.39 ± 0.77.

Turning to GGAAAGCAAUAUUACGGUUG, the “self-splicing fitness (ln)” value (30 °C) was -4.49 ± 0.51.

On to UUUGAGCAAUAUUACGACAC, for which the “self-splicing fitness (ln)” value (30 °C) is -2.21 ± 0.79 and the “self-splicing fitness (ln)” value (37 °C) was -1.47 ± 0.83.

On to GCACAGCAAUAUUACGGACA, for which the “self-splicing fitness (ln)” value (30 °C) was -1.02 ± 0.1 and the “self-splicing fitness (ln)” value (37 °C) is -0.584 ± 0.11.

As for CACGAGCAAUAUUACGACGC, the “self-splicing fitness (ln)” value reads like this: (30 °C) -3.57 ± 0.63; (37 °C) -3.05 ± 0.74.

Regarding UUUAAGCAAUAUUACGCUUA, the “self-splicing fitness (ln)” value (30 °C) is -4.05 ± 0.72.

Regarding GAAUAGCAAUAUUACGCCAU, the “self-splicing fitness (ln)” value (30 °C) is -3.06 ± 0.56.

For ACGGAGCAAUAUUACGACUC, the “self-splicing fitness (ln)” value was -3.21 ± 1.1 (30 °C) and -3.45 ± 1 (37 °C).

For the sequence GAUGAGCAAUAUUACGUUAA, for the setting “37 °C”, the “self-splicing fitness (ln)” value is -2.78 ± 0.61.

For the sequence UGUUAGCAAUAUUACGCACC, the “self-splicing fitness (ln)” value was -3.07 ± 0.79 (30 °C) and 0.254 ± 1.2 (37 °C).

As for AUGUAGCAAUAUUACGGAAC, the “self-splicing fitness (ln)” value is -4.98 ± 0.73 (30 °C) and -1.16 ± 0.41 (37 °C).

For the sequence UACCAGCAAUAUUACGUUGG, the “self-splicing fitness (ln)” value runs as follows: (30 °C) -3.21 ± 0.12; (37 °C) -2.85 ± 0.14.

With ACGGAGCAAUAUUACGGAUA, the “self-splicing fitness (ln)” value runs as follows: (30 °C) -3.27 ± 0.33; (37 °C) -2.61 ± 0.42.

For the sequence GGCAAGCAAUAUUACGGGCC, the “self-splicing fitness (ln)” value (37 °C) is -1.8 ± 0.66.

On to CUGGAGCAAUAUUACGGGAA, for which the “self-splicing fitness (ln)” value by setting is: (30 °C) -2.68 ± 0.31; (37 °C) -2.36 ± 0.27.

Regarding CUGCAGCAAUAUUACGGCUC, the “self-splicing fitness (ln)” value reads like this: (30 °C) -2.57 ± 0.22; (37 °C) -2.96 ± 0.43.

Consider GAAGAGCAAUAUUACGAUAC, for which the “self-splicing fitness (ln)” value (37 °C) was found to be 0.172 ± 0.77.

For AGGAAGCAAUAUUACGAAAA, the “self-splicing fitness (ln)” value (30 °C) is -1.71 ± 0.71.

Take GCCUAGCAAUAUUACGCCGG: under “30 °C”, the “self-splicing fitness (ln)” value was -3.68 ± 0.6.

For UUGGAGCAAUAUUACGAAGG, the “self-splicing fitness (ln)” value is -1.12 ± 0.54 (30 °C) and -1.7 ± 0.66 (37 °C).

In the case of UCGUAGCAAUAUUACGCUAA, where the note is “30 °C”, the “self-splicing fitness (ln)” value is -3.45 ± 0.6.

GGGUAGCAAUAUUACGGCCC: the “self-splicing fitness (ln)” value (37 °C) was -0.693 ± 1.4.

In the case of UUGGAGCAAUAUUACGCAAU, the “self-splicing fitness (ln)” value was -3.59 ± 0.61 (30 °C) and -2.54 ± 0.5 (37 °C).

As for CAGUAGCAAUAUUACGUUCC, for the setting “30 °C”, the “self-splicing fitness (ln)” value is -3.75 ± 1.

For CACAAGCAAUAUUACGUUCG, the “self-splicing fitness (ln)” value reads like this: (30 °C) -0.461 ± 0.048; (37 °C) 0.012 ± 0.06.

In the case of AUCAAGCAAUAUUACGCUAC, under “30 °C”, the “self-splicing fitness (ln)” value is -3.66 ± 1.

Regarding CGAAAGCAAUAUUACGCCGC, the “self-splicing fitness (ln)” value (30 °C) was -2.67 ± 0.62.

For AUGCAGCAAUAUUACGUCCC, the “self-splicing fitness (ln)” value by setting is: (30 °C) -1.53 ± 0.42; (37 °C) -1.89 ± 0.52.

With UUCUAGCAAUAUUACGUAGC, under “30 °C”, the “self-splicing fitness (ln)” value was -5.78 ± 1.

For the sequence CGGAAGCAAUAUUACGAUAU, the “self-splicing fitness (ln)” value (30 °C) was -3.67 ± 0.52.

For UCGCAGCAAUAUUACGUACC, the “self-splicing fitness (ln)” value is, setting by setting: (30 °C) -4.49 ± 1; (37 °C) -2.22 ± 0.65.

Take UUAUAGCAAUAUUACGAUCC: the “self-splicing fitness (ln)” value (30 °C) is -2.95 ± 0.66.

GUCUAGCAAUAUUACGAUAG: the “self-splicing fitness (ln)” value (30 °C) was -4.99 ± 0.58.

Consider CCAAAGCAAUAUUACGACCC, for which, for the setting “30 °C”, the “self-splicing fitness (ln)” value was -4.44 ± 0.72.

For CGGGAGCAAUAUUACGAACG, the “self-splicing fitness (ln)” value reads like this: (30 °C) -4.35 ± 0.24; (37 °C) -3 ± 0.23.

GCUCAGCAAUAUUACGAUGG: the “self-splicing fitness (ln)” value was -1.05 ± 0.11 (30 °C) and 0.368 ± 0.13 (37 °C).

As for GCCGAGCAAUAUUACGGCCG, the “self-splicing fitness (ln)” value (30 °C) was -3.96 ± 0.61.

Consider UCCAAGCAAUAUUACGUUAC, for which the “self-splicing fitness (ln)” value by setting is: (30 °C) -4.16 ± 0.26; (37 °C) -3.2 ± 0.32.

Turning to CAAUAGCAAUAUUACGCUCC, the “self-splicing fitness (ln)” value (30 °C) was -2.7 ± 0.63.

As for GGGGAGCAAUAUUACGCUAA, the “self-splicing fitness (ln)” value (30 °C) was -2.25 ± 0.65.

UAUGAGCAAUAUUACGAAUC: the “self-splicing fitness (ln)” value (30 °C) was -4.85 ± 0.71.

Consider GCGAAGCAAUAUUACGCCAG, for which, for the setting “37 °C”, the “self-splicing fitness (ln)” value was -1.93 ± 0.59.

With AUGGAGCAAUAUUACGUUGA, the “self-splicing fitness (ln)” value (30 °C) is -3.85 ± 0.74.

In the case of CAUCAGCAAUAUUACGUCAC, the “self-splicing fitness (ln)” value was -3.06 ± 0.15 (30 °C) and -2.68 ± 0.23 (37 °C).

For the sequence UUGGAGCAAUAUUACGGCAC, the “self-splicing fitness (ln)” value (30 °C) is -3.52 ± 1.1.

As for CCGGAGCAAUAUUACGUUCU, the “self-splicing fitness (ln)” value (37 °C) is -2.53 ± 0.54.

As for GACCAGCAAUAUUACGCCAU, the “self-splicing fitness (ln)” value by setting is: (30 °C) -3.59 ± 0.17; (37 °C) -2.09 ± 0.13.

For the sequence UUGAAGCAAUAUUACGAUUG, the “self-splicing fitness (ln)” value (30 °C) is -1.35 ± 0.088 and the “self-splicing fitness (ln)” value (37 °C) was 0.272 ± 0.11.

Regarding UCGGAGCAAUAUUACGAACU, the “self-splicing fitness (ln)” value (30 °C) is -3.19 ± 1.2.
